# Data as given in PubChem BioAssay AID2283234 (EPA ToxCast).
# This is a selection; strong and weak results do not stand in their true shares. Inconclusive results are not listed. Activity calls are given as the source filed them. Rule for the calls: active = hit-call score of the fitted dose curve at least 0.9, where 1 is the maximum; inconclusive = response in the unintended direction; inactive = score below 0.9.
# Molecular target: human Dual Specificity Styrosine-Phosphorylation-Regulated Kinase 1A (DYRK1a), DYRK1A (gene 1859) (UniProt Q13627)
# Assay: NVS_ENZ_hDYRK1a: NovaScreen (NVS) Enzymatic Assay for human Dual Specificity Styrosine-Phosphorylation-Regulated Kinase 1A (DYRK1a)
# Experimental: NVS_ENZ_hDYRK1a is a biochemical, single-readout assay that uses extracted gene-proteins in a cell-free assay. Measurements were taken 1 hour after chemical dosing in a 96-well plate.NVS_ENZ_hDYRK1a is one of one assay component(s) measured or calculated from the NVS_ENZ_hDYRK1a assay. It is designed to make measurements of enzyme activity, a form of enzyme reporter, as detected with fluorescence intensity signals by Fluorescence and electrophoretic mobility shift technology.Data from the assay component NVS_ENZ_hDYRK1a was analyzed into 1 assay endpoint. This assay endpoint, NVS_ENZ_hDYRK1a, was analyzed in the positive analysis fitting direction relative to DMSO as the negative control and baseline of activity. Using a type of enzyme reporter, loss-of-signal activity can be used to understand changes in the enzymatic activity as they relate to the gene DYRK1A. Furthermore, this assay endpoint can be referred to as a primary readout, because this assay has produced multiple assay endpoints where this one serves a enzymatic activity function. To generalize the intended target to other relatable targets, this assay endpoint is annotated to the kinase intended target family, where the subfamily is dual-specific kinase. […]
structure (smiles),measurement,value
O=S(=O)(O)C(F)(F)C(F)(F)C(F)(F)C(F)(F)C(F)(F)C(F)(F)C(F)(F)C(F)(F)F,AC50,active: 18.5 µM
